Literature values in patent US20080020059A1, “COMPOSITIONS AND METHODS FOR TOPICAL TREATMENT OF SKIN INFECTION” (CHIOU CONSULTING, INC., priority 2003, published 2008).
For at least one compound, name, drawing or mass did not settle the structure.

System: acne
Conditions: after 12 weeks of treatment

CCC[C@@H]1C[C@@H](C(=O)N[C@@H]([C@H]2O[C@H](SC)[C@H](O)[C@@H](O)[C@H]2O)[C@H](C)Cl)N(C)C1 [clindamycin]
patients showing satisfactory responses: about 50%
